Laboratory results published in the supplement of paper PMC10849652.
This is one part of the list.

Amino acid sequences for entries named in this document (tags omitted). A change or cut given only in a name is not applied to a line headed by its entry.
UniProt Q9NXH8: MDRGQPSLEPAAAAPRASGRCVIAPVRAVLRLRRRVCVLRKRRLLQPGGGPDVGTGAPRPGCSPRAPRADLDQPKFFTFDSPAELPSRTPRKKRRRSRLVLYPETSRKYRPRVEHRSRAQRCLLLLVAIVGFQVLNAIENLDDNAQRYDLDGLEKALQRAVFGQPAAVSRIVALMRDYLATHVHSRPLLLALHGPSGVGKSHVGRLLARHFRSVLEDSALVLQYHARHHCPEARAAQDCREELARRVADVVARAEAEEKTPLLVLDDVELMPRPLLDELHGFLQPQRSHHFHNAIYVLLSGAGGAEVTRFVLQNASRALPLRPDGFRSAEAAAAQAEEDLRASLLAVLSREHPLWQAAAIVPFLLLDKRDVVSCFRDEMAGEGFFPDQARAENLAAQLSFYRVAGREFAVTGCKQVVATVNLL
UniProt Q9NS69: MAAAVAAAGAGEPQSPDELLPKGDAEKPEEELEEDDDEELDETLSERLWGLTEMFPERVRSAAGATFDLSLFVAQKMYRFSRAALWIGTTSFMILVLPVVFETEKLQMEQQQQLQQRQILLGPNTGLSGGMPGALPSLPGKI
UniProt P12270, whole entry, looked up: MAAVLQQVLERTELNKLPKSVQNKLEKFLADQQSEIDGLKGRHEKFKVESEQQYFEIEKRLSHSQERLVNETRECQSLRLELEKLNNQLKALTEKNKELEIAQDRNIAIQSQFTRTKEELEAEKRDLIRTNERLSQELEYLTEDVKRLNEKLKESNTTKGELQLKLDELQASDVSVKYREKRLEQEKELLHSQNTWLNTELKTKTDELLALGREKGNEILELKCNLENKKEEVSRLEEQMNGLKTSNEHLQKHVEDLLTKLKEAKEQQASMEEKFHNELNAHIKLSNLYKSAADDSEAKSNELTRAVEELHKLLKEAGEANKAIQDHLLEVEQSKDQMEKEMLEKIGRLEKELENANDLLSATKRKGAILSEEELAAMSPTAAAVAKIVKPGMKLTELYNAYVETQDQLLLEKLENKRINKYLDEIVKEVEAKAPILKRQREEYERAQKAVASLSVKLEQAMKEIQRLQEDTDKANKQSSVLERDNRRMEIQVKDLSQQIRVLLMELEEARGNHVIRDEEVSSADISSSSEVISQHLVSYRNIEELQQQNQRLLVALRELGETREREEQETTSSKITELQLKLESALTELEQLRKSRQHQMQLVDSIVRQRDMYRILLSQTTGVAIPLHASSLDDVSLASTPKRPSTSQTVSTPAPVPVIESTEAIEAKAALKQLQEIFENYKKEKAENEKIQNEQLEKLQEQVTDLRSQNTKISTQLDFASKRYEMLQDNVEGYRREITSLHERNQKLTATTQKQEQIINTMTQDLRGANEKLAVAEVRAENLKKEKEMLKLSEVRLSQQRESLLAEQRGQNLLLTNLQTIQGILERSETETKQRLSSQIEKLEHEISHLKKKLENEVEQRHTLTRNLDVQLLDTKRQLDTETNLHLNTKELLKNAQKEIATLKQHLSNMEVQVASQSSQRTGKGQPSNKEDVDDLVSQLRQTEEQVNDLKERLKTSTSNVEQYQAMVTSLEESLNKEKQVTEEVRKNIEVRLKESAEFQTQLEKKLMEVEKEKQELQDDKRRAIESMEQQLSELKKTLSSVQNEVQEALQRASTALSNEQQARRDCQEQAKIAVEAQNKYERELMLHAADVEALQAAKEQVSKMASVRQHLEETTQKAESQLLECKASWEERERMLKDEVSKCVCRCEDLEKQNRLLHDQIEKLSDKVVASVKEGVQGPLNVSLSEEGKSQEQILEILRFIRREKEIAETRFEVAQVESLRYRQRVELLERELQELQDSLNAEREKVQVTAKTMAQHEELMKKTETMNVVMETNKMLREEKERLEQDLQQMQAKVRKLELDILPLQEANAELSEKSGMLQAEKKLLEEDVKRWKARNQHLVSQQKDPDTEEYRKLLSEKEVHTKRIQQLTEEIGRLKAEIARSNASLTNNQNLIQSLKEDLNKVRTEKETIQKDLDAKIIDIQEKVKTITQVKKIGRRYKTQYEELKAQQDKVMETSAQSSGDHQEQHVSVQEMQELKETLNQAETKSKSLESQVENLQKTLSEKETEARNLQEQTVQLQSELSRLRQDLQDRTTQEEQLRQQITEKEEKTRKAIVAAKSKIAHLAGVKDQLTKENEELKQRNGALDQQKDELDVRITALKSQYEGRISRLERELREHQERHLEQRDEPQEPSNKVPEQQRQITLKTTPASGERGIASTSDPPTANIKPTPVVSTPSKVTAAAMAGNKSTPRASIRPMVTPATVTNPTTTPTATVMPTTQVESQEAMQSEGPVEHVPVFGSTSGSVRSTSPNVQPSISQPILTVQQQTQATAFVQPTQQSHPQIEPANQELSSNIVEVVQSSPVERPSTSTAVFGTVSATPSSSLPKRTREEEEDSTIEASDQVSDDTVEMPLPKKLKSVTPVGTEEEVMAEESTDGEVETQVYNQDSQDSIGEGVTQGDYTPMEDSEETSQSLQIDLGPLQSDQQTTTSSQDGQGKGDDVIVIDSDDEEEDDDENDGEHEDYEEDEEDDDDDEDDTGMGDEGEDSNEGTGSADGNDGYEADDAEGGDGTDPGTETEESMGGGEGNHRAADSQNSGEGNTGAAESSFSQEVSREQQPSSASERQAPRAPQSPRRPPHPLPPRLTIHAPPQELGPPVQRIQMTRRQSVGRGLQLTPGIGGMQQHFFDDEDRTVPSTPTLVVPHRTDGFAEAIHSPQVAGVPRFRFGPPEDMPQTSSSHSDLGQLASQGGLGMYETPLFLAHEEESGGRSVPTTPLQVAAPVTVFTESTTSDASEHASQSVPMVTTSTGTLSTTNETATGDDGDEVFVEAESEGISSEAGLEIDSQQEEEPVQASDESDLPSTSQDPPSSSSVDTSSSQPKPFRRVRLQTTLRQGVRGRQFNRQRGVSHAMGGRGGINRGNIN
UniProt Q9Y5L0: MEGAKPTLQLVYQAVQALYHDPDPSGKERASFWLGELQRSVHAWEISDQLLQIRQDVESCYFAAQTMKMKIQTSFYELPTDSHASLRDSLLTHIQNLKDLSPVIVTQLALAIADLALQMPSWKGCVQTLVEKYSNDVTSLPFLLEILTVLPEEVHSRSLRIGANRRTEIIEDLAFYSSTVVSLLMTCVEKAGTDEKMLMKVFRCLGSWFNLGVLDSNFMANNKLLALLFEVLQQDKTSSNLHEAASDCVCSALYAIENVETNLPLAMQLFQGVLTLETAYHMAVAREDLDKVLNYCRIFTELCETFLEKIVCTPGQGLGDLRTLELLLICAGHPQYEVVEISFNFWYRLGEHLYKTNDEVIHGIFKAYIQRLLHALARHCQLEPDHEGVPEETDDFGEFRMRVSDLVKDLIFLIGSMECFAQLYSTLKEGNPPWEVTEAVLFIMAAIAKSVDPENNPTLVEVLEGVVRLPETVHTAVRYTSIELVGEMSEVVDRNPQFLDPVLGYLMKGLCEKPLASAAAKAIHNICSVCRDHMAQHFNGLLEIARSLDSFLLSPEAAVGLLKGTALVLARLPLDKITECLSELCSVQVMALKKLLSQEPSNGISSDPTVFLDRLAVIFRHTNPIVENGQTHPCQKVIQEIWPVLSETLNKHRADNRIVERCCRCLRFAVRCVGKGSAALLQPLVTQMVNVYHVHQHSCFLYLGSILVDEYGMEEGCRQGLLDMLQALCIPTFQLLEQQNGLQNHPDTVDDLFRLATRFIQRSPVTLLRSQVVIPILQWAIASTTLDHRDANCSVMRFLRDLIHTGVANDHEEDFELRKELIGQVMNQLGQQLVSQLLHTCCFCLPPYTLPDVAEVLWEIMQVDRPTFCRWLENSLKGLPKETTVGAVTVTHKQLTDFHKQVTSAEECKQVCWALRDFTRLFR
UniProt Q15642: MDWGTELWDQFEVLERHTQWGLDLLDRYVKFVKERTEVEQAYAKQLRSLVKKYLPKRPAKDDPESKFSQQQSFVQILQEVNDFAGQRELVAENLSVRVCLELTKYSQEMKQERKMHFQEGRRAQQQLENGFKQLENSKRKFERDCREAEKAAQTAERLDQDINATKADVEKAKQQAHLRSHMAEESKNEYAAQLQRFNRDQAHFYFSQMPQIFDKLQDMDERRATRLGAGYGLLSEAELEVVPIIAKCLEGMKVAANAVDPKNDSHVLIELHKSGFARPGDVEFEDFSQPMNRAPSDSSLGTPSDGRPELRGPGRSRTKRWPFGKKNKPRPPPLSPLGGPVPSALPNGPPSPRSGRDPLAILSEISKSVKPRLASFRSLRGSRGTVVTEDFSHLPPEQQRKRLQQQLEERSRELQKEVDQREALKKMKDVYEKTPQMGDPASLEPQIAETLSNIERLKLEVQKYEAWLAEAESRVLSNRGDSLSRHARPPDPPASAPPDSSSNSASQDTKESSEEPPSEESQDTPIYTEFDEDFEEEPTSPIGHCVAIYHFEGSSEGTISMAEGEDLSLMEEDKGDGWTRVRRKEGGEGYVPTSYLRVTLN
UniProt Q96Q11: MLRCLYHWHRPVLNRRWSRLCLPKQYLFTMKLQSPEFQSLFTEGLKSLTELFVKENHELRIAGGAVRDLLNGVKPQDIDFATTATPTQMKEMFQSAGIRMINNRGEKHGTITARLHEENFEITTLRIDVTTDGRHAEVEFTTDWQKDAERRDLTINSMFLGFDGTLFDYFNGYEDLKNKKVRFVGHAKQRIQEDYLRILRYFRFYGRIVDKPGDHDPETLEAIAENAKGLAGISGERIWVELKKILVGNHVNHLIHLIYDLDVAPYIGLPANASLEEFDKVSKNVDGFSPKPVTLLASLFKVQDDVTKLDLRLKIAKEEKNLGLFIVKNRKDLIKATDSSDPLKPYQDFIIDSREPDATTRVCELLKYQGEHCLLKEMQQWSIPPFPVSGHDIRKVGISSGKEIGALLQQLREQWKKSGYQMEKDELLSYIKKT
UniProt Q9UKE5: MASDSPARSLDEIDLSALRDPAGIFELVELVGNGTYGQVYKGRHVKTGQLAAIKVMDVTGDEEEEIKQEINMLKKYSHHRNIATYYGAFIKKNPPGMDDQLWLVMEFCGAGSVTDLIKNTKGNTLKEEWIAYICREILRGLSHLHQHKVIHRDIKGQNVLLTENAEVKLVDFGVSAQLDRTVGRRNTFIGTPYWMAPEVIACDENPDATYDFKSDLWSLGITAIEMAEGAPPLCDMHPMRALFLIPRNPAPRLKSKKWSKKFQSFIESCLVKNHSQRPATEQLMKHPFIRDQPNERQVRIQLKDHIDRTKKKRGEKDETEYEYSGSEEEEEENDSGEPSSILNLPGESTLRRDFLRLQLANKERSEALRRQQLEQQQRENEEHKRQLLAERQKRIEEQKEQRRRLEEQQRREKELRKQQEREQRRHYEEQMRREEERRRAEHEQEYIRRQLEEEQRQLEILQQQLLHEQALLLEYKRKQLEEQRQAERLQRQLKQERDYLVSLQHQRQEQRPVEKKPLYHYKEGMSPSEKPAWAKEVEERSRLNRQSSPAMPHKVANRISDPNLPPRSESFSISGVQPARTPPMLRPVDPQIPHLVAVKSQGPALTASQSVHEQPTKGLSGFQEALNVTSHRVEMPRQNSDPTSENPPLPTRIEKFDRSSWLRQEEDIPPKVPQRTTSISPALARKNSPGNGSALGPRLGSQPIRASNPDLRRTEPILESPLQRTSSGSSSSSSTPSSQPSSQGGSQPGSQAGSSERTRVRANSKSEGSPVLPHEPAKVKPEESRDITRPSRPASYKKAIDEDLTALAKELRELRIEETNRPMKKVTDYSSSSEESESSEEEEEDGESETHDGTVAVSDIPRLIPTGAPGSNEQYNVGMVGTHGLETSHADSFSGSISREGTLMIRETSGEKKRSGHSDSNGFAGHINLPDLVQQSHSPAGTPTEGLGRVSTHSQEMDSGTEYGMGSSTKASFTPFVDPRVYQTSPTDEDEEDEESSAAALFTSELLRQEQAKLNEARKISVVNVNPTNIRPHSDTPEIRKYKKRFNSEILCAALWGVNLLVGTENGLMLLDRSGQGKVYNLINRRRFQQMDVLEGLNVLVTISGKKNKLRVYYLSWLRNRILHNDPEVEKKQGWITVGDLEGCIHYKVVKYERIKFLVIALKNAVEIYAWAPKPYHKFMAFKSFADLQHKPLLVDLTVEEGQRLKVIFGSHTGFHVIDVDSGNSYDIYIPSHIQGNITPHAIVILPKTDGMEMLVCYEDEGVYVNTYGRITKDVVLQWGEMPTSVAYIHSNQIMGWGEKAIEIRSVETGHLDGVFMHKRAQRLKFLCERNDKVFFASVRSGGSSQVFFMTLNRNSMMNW
UniProt Q86SZ2: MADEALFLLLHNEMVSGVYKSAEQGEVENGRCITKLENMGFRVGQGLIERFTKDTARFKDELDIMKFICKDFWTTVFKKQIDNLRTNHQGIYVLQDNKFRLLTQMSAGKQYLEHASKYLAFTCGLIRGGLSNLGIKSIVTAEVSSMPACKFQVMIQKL

Tests used:
Experiment in all cases: log2 fold change, soluble protein after heating vs DMSO (PISA); higher = thermal stabilisation; K562 cells, 10 uM, 30 min; active = over 0.2 and 3.5 SD of the protein, either way, in both replicates (recomputed)
[1] = compound: CC[C@@H]1C(=O)N(C)c2cnc(Nc3ccc(C(=O)NC4CCN(C)CC4)cc3OC)nc2N1C1CCCC1
Method in brief: (§1)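 For each measurement, 10 μM compound was applied for 30 min to K562 cells at 2×10^6 cells/mL. Aliquots were heated for 3 min across 48°C-58°C, pooled, and extracted in PBS with 0.5% NP-40 at 4°C; the supernatant after 21,000xg for 90 min was soluble protein. This was quantified by TMTpro 16plex LC-MS/MS with channel sums equalised, and thermal stability was reported relative to control samples from duplicates, on a log2 fold-change scale.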

volasertib = compound: CC[C@@H]1C(=O)N(C)c2cnc(Nc3ccc(C(=O)N[C@H]4CC[C@H](N5CCN(CC6CC6)CC5)CC4)cc3OC)nc2N1C(C)C [volasertib]
Method in brief: as §1

[2] = compound: CC[C@H](C)N1C=C(C2=C(C=C(C=C21)C3=CN=C(C=C3)N4CCNCC4)C(=O)NCC5=C(C=C(NC5=O)C)C)C
Method in brief: as §1

epoxomicin = compound: CC[C@H](C)[C@@H](C(=O)N[C@@H]([C@@H](C)O)C(=O)N[C@@H](CC(C)C)C(=O)[C@]1(CO1)C)NC(=O)[C@H]([C@@H](C)CC)N(C)C(=O)C [epoxomicin]
Method in brief: as §1

[3] = compound: CCn1c(C(=O)N(C2CC2)C2CC2)cc2c3c(ncn3C)c(Nc3cc(C)n(C)n3)nc21
Method in brief: as §1

[4] = compound: CCn1cc(-c2ccnc3[nH]c(-c4cccc(CN(C)C)c4)cc23)c(-c2ccc(NC(=O)N(C)C)cc2)n1
Method in brief: as §1

[5] = compound: CN(C)CC(=O)Nc1ccc2[nH]c(=O)c3ccccc3c2c1
Method in brief: as §1

rosiglitazone = compound: CN(CCOC1=CC=C(C=C1)C[C@H]2C(=O)NC(=O)S2)C3=CC=CC=N3 (racemic) [rosiglitazone]
Method in brief: as §1

[6] = compound: CN1C2=C(C3=C1C(=O)N(N=C3)CC4=CC(=CC=C4)N)SC(=C2)S(=O)C
Method in brief: as §1

[7] = compound: CN1CCC(CNc2ccc3ncc(-c4cccc(OC(F)(F)F)c4)n3n2)CC1
Method in brief: as §1

Target	log2 fold change [1]	log2 fold change (volasertib)	log2 fold change [2]	log2 fold change (epoxomicin)	log2 fold change [3]	log2 fold change [4]	log2 fold change [5]	log2 fold change (rosiglitazone)	log2 fold change [6]	log2 fold change [7]
TRAF6 (UniProt Q9Y4K3)	inactive: -0.02	inactive: -0.119	inactive: 0.007	inactive: 0.08	inactive: 0.005	inactive: -0.138	inactive: -0.016	inactive: 0.037	inactive: 0.006	inactive: 0
TOR4A (UniProt Q9NXH8)	inactive: -0.001	inactive: 0.011	inactive: 0.018	inactive: -0.054	inactive: 0.012	inactive: 0.128	inactive: 0.003	inactive: -0.012	inactive: 0.101	inactive: -0.002
TOMM22 (UniProt Q9NS69)	inactive: 0.033	inactive: -0.009	inactive: -0.003	inactive: 0.098	inactive: -0.03	inactive: 0.012	inactive: 0.033	inactive: -0.03	inactive: -0.062	inactive: 0.103
TP53RK (UniProt Q96S44)	inactive: 0.01	inactive: 0.056	inactive: 0.003	inactive: 0.004	inactive: 0.045	inactive: 0.025	inactive: -0.023	inactive: 0.027	inactive: -0.035	inactive: -0.002
TOP2A isoform 4 (UniProt P11388)	inactive: 0.198	inactive: 0.226	inactive: 0.106	inactive: -0.231	–	inactive: 0.156	inactive: -0.194	–	inactive: 0.526	inactive: 0.128
TRMT2A (UniProt Q8IZ69)	inactive: 0.01	inactive: 0.016	inactive: 0.044	inactive: -0.083	–	inactive: -0.003	inactive: 0.034	–	inactive: 0.1	inactive: -0.198
TOM1 isoform 2 (UniProt O60784)	inactive: -0.056	inactive: -0.196	inactive: 0.037	inactive: -0.035	–	inactive: -0.082	inactive: 0.026	–	inactive: 0.006	inactive: -0.274
TP53I3 (UniProt Q53FA7)	inactive: 0.023	inactive: 0.055	inactive: -0.027	inactive: 0.022	inactive: 0.028	inactive: 0.026	inactive: -0.031	inactive: -0.006	inactive: 0.005	inactive: -0.035
TOR2A (UniProt Q5JU69)	inactive: 0.072	inactive: 0.148	inactive: -0.095	inactive: 0.126	inactive: 0.029	inactive: 0.092	inactive: 0.12	inactive: -0.018	inactive: 0.034	inactive: 0.099
TPR (UniProt P12270)	inactive: 0.095	inactive: -0.034	inactive: -0.018	inactive: 0	–	inactive: 0.067	inactive: -0.03	–	inactive: -0.005	active: 0.297
TOE1 (UniProt Q96GM8)	inactive: 0.067	inactive: 0.154	inactive: -0.023	inactive: -0.148	–	inactive: 0.035	inactive: -0.043	–	inactive: 0.107	active: 0.35
TNPO3 (UniProt Q9Y5L0)	inactive: -0.182	active: -0.406	inactive: 0.039	inactive: 0.041	–	inactive: -0.075	inactive: 0.041	–	inactive: -0.036	inactive: -0.128
TRIM32 (UniProt Q13049)	inactive: 0	inactive: 0.19	inactive: -0.017	inactive: -0.129	inactive: -0.046	inactive: -0.063	inactive: -0.152	inactive: 0.074	inactive: 0.163	inactive: 0.042
TPP1 (UniProt O14773)	active: -0.647	active: -1.09	inactive: -0.002	inactive: 0.019	–	inactive: -0.117	inactive: 0.007	–	inactive: -0.001	active: -0.569
TPP2 (UniProt Q5VZU9)	inactive: 0.154	inactive: 0.31	inactive: 0.104	inactive: 0.041	inactive: -0.144	–	inactive: -0.012	inactive: -0.082	inactive: 0.163	–
TRAPPC8 (UniProt Q9Y2L5)	inactive: -0.092	active: -0.287	inactive: 0.077	inactive: 0.033	–	inactive: -0.073	inactive: 0.015	–	inactive: 0.04	inactive: -0.099
TRIP10 isoform 2 (UniProt Q15642)	inactive: -0.033	inactive: -0.276	inactive: -0.018	inactive: -0.285	–	inactive: -0.101	inactive: -0.18	–	inactive: 0.045	inactive: -0.075
TRNT1 (UniProt Q96Q11)	inactive: -0.032	inactive: -0.011	inactive: 0.017	inactive: 0.067	inactive: -0.011	inactive: -0.052	inactive: 0.022	inactive: 0.046	inactive: -0.043	inactive: -0.14
TRMT61A (UniProt Q96FX7)	inactive: 0.044	inactive: 0.161	inactive: 0.022	inactive: -0.061	–	inactive: 0.043	inactive: -0.098	–	inactive: 0.099	inactive: -0.001
TNIK isoform 6 (UniProt Q9UKE5)	inactive: -0.041	inactive: 0.003	inactive: 0.011	inactive: 0.025	inactive: -0.008	inactive: -0.062	inactive: -0.024	inactive: 0.026	inactive: 0.016	inactive: -0.034
TOLLIP (UniProt Q9H0E2)	inactive: 0.02	inactive: -0.067	inactive: 0.056	inactive: 0.018	inactive: 0.021	inactive: -0.071	inactive: 0.115	inactive: 0.01	inactive: -0.051	inactive: 0.007
TRAPPC6B (UniProt Q86SZ2)	inactive: -0.015	inactive: -0.002	inactive: -0.011	inactive: 0.146	–	inactive: -0.05	inactive: -0.01	–	inactive: -0.026	inactive: -0.08
TRIM25 (UniProt Q14258)	inactive: -0.01	inactive: -0.277	inactive: 0.069	inactive: -0.166	inactive: -0.051	inactive: 0.131	inactive: 0.038	inactive: -0.018	inactive: 0.207	inactive: 0.123
